No constants are given. Whether binding was seen depends on the method and setting. Binding seen in cells or lysates may run through a third protein. Some results given as binding are weak or reduced against the parent protein; the word gives no strength.
Key:
[1] = biological target: β-catenin (human (endogenous in kidney tissue)) (UniProt P35222); test: co-IP; β- or γ-catenin-specific antibodies coupled to Protein-A agarose, incubated 1 hour at 4°C with pre-cleared normal human kidney tissue lysate (0.6% CHAPS in PBS with protease inhibitors); cadherin-9 detected by Western blot
[2] = biological target: T1, γ-catenin (human (endogenous in kidney tissue)) (UniProt P14923); test: as above
T1 sequence: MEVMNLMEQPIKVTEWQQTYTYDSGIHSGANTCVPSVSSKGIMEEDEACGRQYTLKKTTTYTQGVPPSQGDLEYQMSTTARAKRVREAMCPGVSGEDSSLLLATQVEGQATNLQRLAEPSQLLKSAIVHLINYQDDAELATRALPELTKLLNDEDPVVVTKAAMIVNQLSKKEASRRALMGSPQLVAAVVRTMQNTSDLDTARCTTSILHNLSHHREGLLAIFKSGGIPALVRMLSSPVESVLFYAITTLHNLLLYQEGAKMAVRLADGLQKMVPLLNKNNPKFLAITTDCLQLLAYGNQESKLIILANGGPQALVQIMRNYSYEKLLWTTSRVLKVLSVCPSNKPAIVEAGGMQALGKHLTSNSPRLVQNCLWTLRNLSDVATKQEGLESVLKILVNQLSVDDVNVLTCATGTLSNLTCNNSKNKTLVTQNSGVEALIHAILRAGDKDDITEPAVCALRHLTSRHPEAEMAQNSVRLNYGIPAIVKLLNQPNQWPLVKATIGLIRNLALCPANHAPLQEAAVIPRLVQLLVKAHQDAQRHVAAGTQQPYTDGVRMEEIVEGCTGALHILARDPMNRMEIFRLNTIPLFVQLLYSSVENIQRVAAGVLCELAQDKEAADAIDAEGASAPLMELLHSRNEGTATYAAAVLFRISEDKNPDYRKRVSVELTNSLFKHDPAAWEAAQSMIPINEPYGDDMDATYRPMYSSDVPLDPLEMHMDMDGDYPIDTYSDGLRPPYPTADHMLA

Amino acid sequences for entries named in this document (tags omitted).
UniProt P35222: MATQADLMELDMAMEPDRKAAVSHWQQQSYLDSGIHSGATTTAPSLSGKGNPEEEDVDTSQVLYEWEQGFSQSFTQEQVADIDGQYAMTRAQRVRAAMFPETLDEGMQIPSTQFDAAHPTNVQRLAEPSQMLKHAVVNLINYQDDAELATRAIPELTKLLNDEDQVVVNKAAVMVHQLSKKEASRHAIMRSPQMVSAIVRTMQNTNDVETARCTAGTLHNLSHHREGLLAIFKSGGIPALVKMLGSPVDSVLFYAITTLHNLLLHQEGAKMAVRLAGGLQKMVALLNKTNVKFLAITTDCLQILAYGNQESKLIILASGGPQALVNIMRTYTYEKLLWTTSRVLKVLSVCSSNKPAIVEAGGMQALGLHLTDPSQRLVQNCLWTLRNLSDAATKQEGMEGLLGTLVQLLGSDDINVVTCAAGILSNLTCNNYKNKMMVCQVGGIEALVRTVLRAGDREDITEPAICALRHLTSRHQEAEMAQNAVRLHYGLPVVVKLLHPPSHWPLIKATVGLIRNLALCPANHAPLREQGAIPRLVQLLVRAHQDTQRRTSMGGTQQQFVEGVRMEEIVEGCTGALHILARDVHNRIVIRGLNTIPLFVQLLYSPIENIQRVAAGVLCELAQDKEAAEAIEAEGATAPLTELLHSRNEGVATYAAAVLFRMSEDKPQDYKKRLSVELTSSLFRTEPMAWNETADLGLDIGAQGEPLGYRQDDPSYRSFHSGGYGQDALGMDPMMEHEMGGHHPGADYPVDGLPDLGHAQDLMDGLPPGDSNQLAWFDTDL

B1: cadherin-9 (protein, UniProt Q9ULB4 54-789)
chain: GWMWNQFFLLEEYTGTDTQYVGKLHTDQDKGDGNLKYILTGDGAGSLFVIDENTGDIHAAKKLDREEKSLYILRAKAIDRKTGRQVEPESEFIIKIHDINDNEPKFTKDLYTASVPEMSGVGTSVIQVTATDADDANYGNSAKVVYSILQGQPYFSVDPESGIIKTALPDMSRENREQYQVVIQAKDMGGQMGGLSGTTTVNITLTDVNNNPPRFPQSTYQFNSPESVPLGTHLGRIKANDPDVGENAEMEYSIAEGDGADMFDVITDKDTQEGIITVKQNLDFENQMLYTLRVDASNTHPDPRFLHLGPFKDTAVVKISVEDIDEPPVFTKVSYLIEVDEDVKEGSIIGQVTAYDPDARNNLIKYSVDRHTDMDRIFGIHSENGSIFTLKALDRESSPWHNITVTATEINNPKQSSHIPVFIRILDINDHAPEFAMYYETFVCENAKPGQLIQTVSVMDKDDPPRGHKFFFEPVPEFTLNPNFTIVDNKDNTAGIMTRKDGYSRNKMSTYLLPILIFDNDYPIQSSTGTLTIRVCACDNQGNMQSCTAEALILSAGLSTGALVAILLCVLILLILVVLFAALKRQRKKEPLIISKDDVRDNIVTYNDEGGGEEDTQAFDIGTLRNPEAREDSKLRRDVMPETIFQIRRTVPLWENIDVQDFIHRRLKENDADPSAPPYDSLATYAYEGNDSIADSLSSLESLTADCNQDYDYLSDWGPRFKKLADMYGGDDSDRD
binding [1]: binds | binding [2]: binds
